Test results: article PMC4027180

Assays:
[1] = system: Stf76 (Sulfolobus islandicus plasmid-virus pSSVx); assay: EMSA; conditions: EMSA: 20 mM Tris-acetate pH 8.0, 50 mM K acetate, 10 mM Mg acetate, 1 mM DTT, 5% glycerol, 50 C protein pre-incubation, binding 37 C, recombinant protein, protein details: C-terminal His6 (LEHHHHHH)
[2] = system: Stf76 (Sulfolobus islandicus plasmid-virus pSSVx); assay: CD; conditions: change up to 2:1 protein:DNA, 20 C; CD: 10 mM Na phosphate, 50 mM NaCl pH 7.0, 20 C; recombinant protein; protein details: C-terminal His6 (LEHHHHHH)
[3] = system: Stf76 (Sulfolobus islandicus plasmid-virus pSSVx); assay: ITC; conditions: second event (K2) at about 5:1 protein:DNA, only stated as micromolar range; ITC: 20 mM Na phosphate, 50 mM NaCl pH 7.0, 22 C; recombinant protein; protein details: C-terminal His6 (LEHHHHHH)
[4] = system: Stf76 (Sulfolobus islandicus plasmid-virus pSSVx); assay: NMR CSP (15N HSQC); conditions: 15N-labeled Stf76, pH 5.5, sub-stoichiometric DNA; NMR: 20 mM Na phosphate pH 5.5, 50 mM NaCl; recombinant protein; protein details: C-terminal His6 (LEHHHHHH)
[5] = system: Stf76 (Sulfolobus islandicus plasmid-virus pSSVx); assay: DNA thermal melting; conditions: DNA stabilized by 10 C at 2:1 protein:DNA; recombinant protein; protein details: C-terminal His6 (LEHHHHHH)
[6] = system: Stf76 (Sulfolobus islandicus plasmid-virus pSSVx); assay: intrinsic fluorescence; conditions: decrease at 355 nm (Trp55) up to 2:1 protein:DNA; recombinant protein; protein details: C-terminal His6 (LEHHHHHH)
[7] = system: Stf76 (Sulfolobus islandicus plasmid-virus pSSVx); assay: static light scattering; conditions: 1:1 and 2:1 protein:DNA complexes; recombinant protein; protein details: C-terminal His6 (LEHHHHHH)

Sequence | binding result ([1]; up to 51.6 uM Stf76, 1 ug salmon sperm DNA, label: 32P) | binding result [2] | binding result [3] | binding result ([1]; 1 ug salmon sperm DNA) | binding result [4] | binding result [5] | binding result [6] | binding result [7]
GGAAACAGTATTAATAAAGTGCCGTTCCTATTACC (double strand) [probe A'*] | no binding |  |  |  |  |  |  | 
GGAAACAGTATTAATAAAGTGTTAATCCTATTACCC (double strand) [probe A' (35 bp-site A)] |  | binds | binds more weakly | binds | binds | binds | binds | binds

The exact form of at least one protein or probe is not confirmed. For some assays here: No signal at the amounts used counts as a negative. For some assays here: Weaker means in comparison with the reference protein, sequence or condition of that experiment.
